The source of these data is PubChem BioAssay AID1458 (National Center for Advancing Translational Sciences (NCATS), 2008).

Out of some 210,000 compounds screened, about 5,900 (2.8%) were called active. Another 5% or so got no clear call; they are omitted. Calls come from the whole dose curve; as a rule, active = well fitted activation curve with a large enough effect; inconclusive = small, poorly fitted or top-dose-only effect; inactive = no such curve, though single readings can be large or run the other way. Only a part is listed here, and it is no random draw. Entries without a call were filed so in the source.
Potency is the fitted concentration of half-maximal effect.

This assay can be described thus: qHTS Assay for Enhancers of SMN2 Splice Variant Expression. For activity change, positive = activation: % of control where 0% means no effect. Note: nearly all actives have a fitted effect of over 55% in size. Particulars: HEK293 SMN2-luciferase splicing reporter, luminescence, 30-36 h; activity change, positive = activation: at 46.1 µM (top of the series) unless noted. The source says: NIH Chemical Genomics Center [NCGC] NIH Molecular Libraries Probe Production centers Network [MLPCN] MLPCN Grant: R03 MH084179-01 Assay Submitter (PI): Elliot Androphy NCGC Assay Overview: Spinal muscular atrophy (SMA) is caused by insufficient levels of the survival motor neuron protein SMN. The SMN locus on chromosome 5q13 contains two inverted copies of SMN called SMN1 and SMN2 which are 99% identical at the amino acid level. SMN1 is a fully functional protein and SMN2 skips exon 7 90% of the time. Skipping of exon 7 produces non-functional protein product. 10% of the SMN2 protein includes exon 7 and is fully functional. In the SMA disease state, mutations in the SMN1 locus are the cause of the disease state. Because only 10% of SMN2 is of the fully functional form, it is not sufficient to overcome the deficiency produced by the loss of the SMN1 product. A therapy that either increase the amount of SMN2 product made or to increase the inclusion of exon 7 has been proposed for the treatment of SMA. We have designed an assay to identify small molecules that can increase the amount of functional SMN2 product by appending a luciferase reporter gene after the native SMN2 gene, such that inclusion of exon 7 in the expressed product places the luciferase sequence in frame, thus generating functional luciferase enzyme.
NCGC Assay Protocol Summary: This screen utilizes a luciferase reporter gene assay, combining the promoter and splicing based cassettes in tandem with the major portion of the native SMN2 cDNA, and then transfected into HEK293 cells. Compounds that increase luciferase signal presumably enhance expression of the functional SMN2 splice variant. Passaging media contained DMEM w/ glutamax (+phenol red) 10% FCS, 1x pen/strep, 200 ug/ml hygro, 1x sodium pyruvate. Assay media contained DMEM w/ glutamax (-phenol red) 10% FCS, 1x pen strep, 1x pyruvate Sequence, Parameter, Value, Description (1) Cells, […], 2000 cells/well, 1536 TC treated White solid bottom plate (2) Time, 10-12 hours, 37C 5% CO2 (3) Compound, 23 nl, MLSMR Library (4) Control Compound, 23 nL, Sodium butyrate st 4.5mM (final) conc (5) Time, 30-36 hours, 37C 5% CO2 (6) Reagent, 3 ul, One Glo (TM) from Promega (7) Time, 5-15 minutes, Room temp (8) Detector, Viewlux: luminescent read, 60 second integration, high speed 2x binning Keywords: Spinal muscular atrophy, SMA, SMN2, high throughput screening, MLSMR, MLPCN, NIH Roadmap, qHTS and NCGC
(In general: Quantitative high-throughput screening tests each substance at several concentrations.)
With `COc1ccccc1NC(=O)Nc1ccncc1`, the “activity change, positive = activation” value is inactive: -34.3%.
Regarding `CCOc1ccc(/C=C2/C(=O)N(c3ccc(OC)cc3)C(=S)N2CC(=O)OC)cc1OCC`, the Potency is active: 12.6 µM.
For the molecule `Cc1cccc(NC(=S)NNC(=O)c2csc(C)c2)c1`, the activity change, positive = activation turned out to be 40.6%.
The same measure, in the same setting: the same measure for `COc1ccc(-c2nc3c(c4c2C[C@H](c2ccccc2)OC4)CN(C(=O)c2cc(I)ccc2F)CC3)c(C)c1`: inactive: -10.6% [at 9.22 µM].
Still for that read-out and setting: the same measure for `COc1ccccc1N(CC(=O)Nc1ccc(S(=O)(=O)N2CCCCC2)cc1)S(C)(=O)=O`: 47.5%.
Same read-out and setting: for `CC(C)NS(=O)(=O)c1ccc(CCC(=O)NCc2ccco2)cc1` the value was 56.8%.
In the case of `Cc1cccc(N2CCN(C(=O)c3cn4ccccc4n3)CC2C)c1` (centres undefined), the “activity change, positive = activation” value is inactive: -65.6%.
For the molecule `S=C(NCCc1ccccc1)NC1CCCCCC1`, the Potency was active: 12.6 µM.
As for `CC(=O)c1cc2c(cc1NS(=O)(=O)c1ccc(C)cc1)OCO2`, the activity change, positive = activation was -36.7%.
On to `O=C(Nc1ccc(-c2nc3ccccc3o2)c(O)c1)c1cc(-n2cnnc2)ccc1Cl`, for which the “activity change, positive = activation” value was inactive: -102%.
Take `Cn1nc(C(C)(C)C)cc1C(=O)NCc1ccc(N2CCCC2=O)cc1`: the activity change, positive = activation is -87.1%.
Still for that read-out and setting: for `O=S(=O)(NCCSc1nnnn1-c1ccccc1)c1cccs1` the value was 44.3%; for `CC(=C1C(=O)c2ccccc2C1=O)N1CCC(C(N)=O)(N2CCCCC2)CC1`, 32.1%.
On the same count and under the same terms, the same measure for `Cc1cccc(NC(=O)c2cc3n(n2)C(C(F)(F)F)CC(c2ccc4c(c2)OCO4)N3)c1` (centres undefined): 36.7%; for `C=CCC1C=C(C)CC(CC=C)N1` (centres undefined): inactive: 3.08%; for `Cn1c(=O)c2c(ncn2Cc2cc(-c3ccccc3)no2)n(C)c1=O`: -41.3%.
On to `N#Cc1ccc(CSc2nnc(-c3ccccn3)n2-c2ccccc2)cc1`, for which the “activity change, positive = activation” value was inactive: -29.6%.
Still for that read-out and setting: for `N#C/C(=C\c1ccc([N+](=O)[O-])cc1)c1ccccn1` the value was 107%; for `COc1ccc(-c2nn(CC(=O)N(C)C)c(=O)c3ccccc23)cc1`, 68.5%; for `COC(=O)c1ccccc1NC(=O)C1COc2ccccc2O1` (centres undefined), 27.6%.
Still for that read-out and setting: for `CCOc1ccc(-n2c(=S)sc3c(=O)[nH]c(SCC(=O)N4CCC(C)CC4)nc32)cc1` the value was inactive: -47.7%; for `CSc1nnc2n(C3CCCCC3)c(=O)c3c4c(sc3n12)CCCC4`, 52.2%; for `O=C(O)CCCCCNS(=O)(=O)c1cccc2nsnc12`, 71%.
On the same count and under the same terms, the same measure for `CCC(C)c1ccc(OCCn2ccnc2)cc1` (centres undefined): inactive: -30%; for `c1ccc(-c2nc(N3CCCCC3)nc3ccccc23)cc1`: -55.8%; for `COc1cc(/C=C(\C#N)C(=O)N2CCOCC2)cc(Br)c1O`: -41.9%.
With `COC(=O)c1ccc(OCCN2C3=NCCN3c3ccccc32)cc1`, the activity change, positive = activation is 57.7%.
Turning to `O=C(CSCc1cccs1)N1CCCC1`, the Potency is active: 12.6 µM.
`Cc1cc(=O)oc2c1ccc1oc(/C(=N/O)c3ccccc3)c(C)c12`: the activity change, positive = activation was -52%.
Take `Cc1nc(-c2ccccc2)sc1-c1ccnn1C`: the Potency is active: 12.6 µM.
Take `CC(C)NC(=O)c1nc2ccccc2s1`: the activity change, positive = activation turned out to be 41.7%.
Still for that read-out and setting: the same measure for `COc1cccc(C(=O)/C=C/Nc2cc(C)ccc2O)c1`: 30.3%.
On the same count and under the same terms, for `Oc1ccccc1C(=S)N1CCCCCC1` the value was 36.8%.
As for `COc1ccc(C(=O)NCC(C)(C)SCc2c(C)cc(C)cc2C)cc1`, the activity change, positive = activation was -31%.
As for `CC1=CCC2([N+](=O)[O-])CN(CC(=O)O)CC1([N+](=O)[O-])C2` (centres undefined), the activity change, positive = activation is -17.3%.
Still for that read-out and setting: the same measure for `CCCc1nc([N+](=O)[O-])c(S(=O)(=O)c2ccccc2)n1CC(C)C`: inactive: -46.4%; for `CC(=O)N(C)c1ccc(OCC(O)Cn2c3ccc(Cl)cc3c3cc(Cl)ccc32)cc1` (centres undefined): inactive: -128%.
On the same count and under the same terms, for `Fc1cccc(Cl)c1-c1nnc2ccc3ccccc3n12` the value was inactive: -51.4%.
`COc1ccc(-c2nc3ccccc3s2)cc1NC(=O)COc1ccc(C)cc1`: the Potency was active: 1.26 µM.
Turning to `COc1ccc(S(=O)(=O)Nc2ccc(C)cc2)cc1N(C)S(=O)(=O)c1ccc(Cl)cc1`, the activity change, positive = activation is -48%.
Still for that read-out and setting: for `CCC(Sc1nc2ccccc2[nH]1)C(=O)Nc1cc(C)on1` (centres undefined) the value was 31.2%.
Regarding `O=C(NCc1ccco1)c1cc2c(s1)CCCCC2`, the Potency is active: 14.1 µM.
Regarding `CC1(C(=O)NCCN2CCOCC2)C=CCN1C(=O)c1ccccc1` (centres undefined), the activity change, positive = activation amounted to 76.9%.
Take `CC(=O)Cc1nsc(Nc2ccc3c(c2)OCCO3)n1`: the Potency is active: 12.6 µM.
As for `CCn1c(C2CCN(S(=O)(=O)c3ccc(OC)cc3)CC2)n[nH]c1=S`, the activity change, positive = activation was -32.4%.
In the case of `CN(C)CC(C(=O)c1ccccc1)c1ccccc1` (centres undefined), the “activity change, positive = activation” value is inactive: -94.4%.
For `Cc1cccc(NS(=O)(=O)c2ccc(Br)s2)n1`, the activity change, positive = activation was 32.6%.
As for `Cc1ccc(Nc2c(-c3c[nH]c4ccccc34)nc3cc(C)ccn23)cc1`, the Potency was active: 14.1 µM.
Regarding `O=C(Nc1ccc(N2CCN(C(=O)c3ccccc3)CC2)c(Cl)c1)c1cccnc1`, the activity change, positive = activation was -35%.
Still for that read-out and setting: for `CCOc1ccc(C2C(C(=O)O)CCC(=O)N2C2CCCCC2)cc1` (centres undefined) the value was inactive: 5.94%.
On to `Cc1ccc2nc(-c3ccc(NC(=O)CNC4CC4)cc3)sc2c1`, for which the Potency was active: 2.24 µM.
As for `CC(=O)NCC1=C(NC(C)=O)C2CC1C(C)(C)C2C` (centres undefined), the activity change, positive = activation was 31.5%.
The same measure, in the same setting: for `COc1ccc(CC(=O)Nc2cccc(-c3nnc(-c4ccccc4)o3)c2)cc1OC` the value was inactive: -120%; for `COc1ccc(NC(=S)NC(=O)c2ccccc2Cl)cc1`, 30.7%.
